# From the supplement of paper PMC6658780
# Counter-ions that a name gives are not always drawn. ± gives the standard deviation of the averaged measurements. The list shows a part of the results. Repeats in this data set agree poorly, so a single value says little.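 The A. baumannii clinical isolates were selected for resistance to the partner antibiotic; the screen seeks drugs that restore its effect. Background from coloured compounds is removed by subtracting the start-of-incubation reading.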
# Test system: Acinetobacter baumannii WP-487
# Experiment: percent growth inhibition of drug + antibiotic vs DMSO control; higher = more growth inhibition
# Conditions: antibiotic (0.125x MIC): colistin; 7 µM
# Protocol: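 Prestwick drugs tested at 20 uM and 7 uM with an antibiotic at 0.125x MIC (16 mg/L when MIC >128 mg/L) in cation-adjusted Mueller-Hinton broth, 384-well plates, duplicate runs on different days. Percent growth inhibition was computed from OD600 (24 h minus 0 h) relative to DMSO-only wells. Drug + 0.1% DMSO (no antibiotic) wells are also given. Only hits (max corrected inhibition > mean + 3SD) are listed. A. baumannii: NCTC-13301 was used for MEM/CIP/GEN/TGC and WP-487 for colistin. Duplicates with colistin are strongly discordant (run 2 near 100% for most drugs).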
row,Compound,percent growth inhibition [%]
1,CN(C)CCOc1ccc(/C(=C(/CCCl)c2ccccc2)c2ccccc2)cc1 [Toremifene],35.3 ± 60
2,O=C(c1ccc(OCCN2CCCCC2)cc1)c1c(-c2ccc(O)cc2)sc2cc(O)ccc12 [Raloxifene hydrochloride],50.3 ± 52
3,Clc1ccc(CO/N=C(\Cn2ccnc2)c2ccc(Cl)cc2Cl)c(Cl)c1 [Oxiconazole Nitrate],50.8 ± 57
4,COC(=O)C1=C(C)NC(C)=C(C(=O)OCCN(C)Cc2ccccc2)C1c1cccc([N+](=O)[O-])c1 (stereo not given) [Nicardipine hydrochloride],-5.19 ± 3.3
5,COC(=O)[C@H]1[C@H]2C[C@@H]3c4[nH]c5cc(OC)ccc5c4CCN3C[C@H]2C[C@@H](OC(=O)c2cc(OC)c(OC)c(OC)c2)[C@@H]1OC [Reserpine],-1.51 ± 1.4
6,O=c1[nH]c(=O)n([C@H]2C[C@H](O)[C@@H](CO)O2)cc1F [Floxuridine],26.2 ± 41
7,CCC(C)(C)c1ccc(CC(C)CN2C[C@@H](C)O[C@@H](C)C2)cc1 (stereo not given in full) [Amorolfine hydrochloride],-0.56 ± 2.7
8,CCCCc1cc2ccccc2c(OCCN(C)C)n1 [Dimethisoquin hydrochloride],7.54 ± 11
9,c1ccc(-c2ccc(C(c3ccccc3)n3ccnc3)cc2)cc1 (stereo not given) [Bifonazole],55.1 ± 52
10,CCN(CC)CCOC(=O)C1(C2CCCCC2)CCCCC1 [Dicyclomine hydrochloride],0.338 ± 2.5
11,NC[C@H]1O[C@H](O[C@H]2[C@H](O)[C@@H](O[C@H]3O[C@H](CO)[C@@H](O)[C@H](N)[C@H]3O)[C@H](N)C[C@@H]2N)[C@H](N)C[C@@H]1O [Tobramycin],49.9 ± 71
12,OCCN1CCN(CCCN2c3ccccc3Sc3ccc(C(F)(F)F)cc32)CC1 [Fluphenazine dihydrochloride],48 ± 59
13,CC(=O)N1CCN(c2ccc(OCC3COC(Cn4ccnc4)(c4ccc(Cl)cc4Cl)O3)cc2)CC1 (stereo not given) [Ketoconazole],0.648 ± 6.2
14,CCc1nn(CCCN2CCN(c3cccc(Cl)c3)CC2)c(=O)n1CCOc1ccccc1 [Nefazodone hydrochloride],22.9 ± 47
15,O=C1NCN(c2ccccc2)C12CCN(CCCC(c1ccc(F)cc1)c1ccc(F)cc1)CC2 [Fluspirilen],51.1 ± 69
16,Clc1ccc(CCC(Cn2ccnc2)Sc2c(Cl)cccc2Cl)cc1 (stereo not given) [Butoconazole nitrate],52.2 ± 55
17,C#C[C@]1(O)CC[C@H]2[C@@H]3CCC4=Cc5oncc5C[C@]4(C)[C@H]3CC[C@@]21C [Danazol],-0.00251 ± 15
18,CO[C@H]1C[C@H](O[C@H]2[C@H](C)[C@@H](O[C@@H]3O[C@H](C)C[C@H](N(C)C)[C@H]3OC(C)=O)[C@@H](C)C[C@@]3(CO3)C(=O)[C@H](C)[C@@H](OC(C)=O)[C@@H](C)[C@@H](C)OC(=O)[C@@H]2C)O[C@@H](C)[C@@H]1OC(C)=O [Troleandomycin],54.5 ± 52
19,CN[C@H]1CC[C@@H](c2ccc(Cl)c(Cl)c2)c2ccccc21 [Sertraline],0.894 ± 4.3
20,CN(C)CCCN1c2ccccc2Sc2ccc(Cl)cc21 [Chlorpromazine hydrochloride],16 ± 25

# Same assay, conditions: antibiotic (0.125x MIC): colistin; 20 µM
row,Compound,percent growth inhibition [%]
1,CN(C)CCOc1ccc(/C(=C(/CCCl)c2ccccc2)c2ccccc2)cc1 [Toremifene],58.4 ± 59
2,O=C(c1ccc(OCCN2CCCCC2)cc1)c1c(-c2ccc(O)cc2)sc2cc(O)ccc12 [Raloxifene hydrochloride],55.5 ± 51
3,Clc1ccc(CO/N=C(\Cn2ccnc2)c2ccc(Cl)cc2Cl)c(Cl)c1 [Oxiconazole Nitrate],56 ± 51
4,COC(=O)C1=C(C)NC(C)=C(C(=O)OCCN(C)Cc2ccccc2)C1c1cccc([N+](=O)[O-])c1 (stereo not given) [Nicardipine hydrochloride],59.5 ± 55
5,COC(=O)[C@H]1[C@H]2C[C@@H]3c4[nH]c5cc(OC)ccc5c4CCN3C[C@H]2C[C@@H](OC(=O)c2cc(OC)c(OC)c(OC)c2)[C@@H]1OC [Reserpine],50.4 ± 68
6,O=c1[nH]c(=O)n([C@H]2C[C@H](O)[C@@H](CO)O2)cc1F [Floxuridine],51.9 ± 65
7,CCC(C)(C)c1ccc(CC(C)CN2C[C@@H](C)O[C@@H](C)C2)cc1 (stereo not given in full) [Amorolfine hydrochloride],51.2 ± 59
8,CCCCc1cc2ccccc2c(OCCN(C)C)n1 [Dimethisoquin hydrochloride],57.4 ± 60
9,c1ccc(-c2ccc(C(c3ccccc3)n3ccnc3)cc2)cc1 (stereo not given) [Bifonazole],64.1 ± 42
10,CCN(CC)CCOC(=O)C1(C2CCCCC2)CCCCC1 [Dicyclomine hydrochloride],51.4 ± 69
11,NC[C@H]1O[C@H](O[C@H]2[C@H](O)[C@@H](O[C@H]3O[C@H](CO)[C@@H](O)[C@H](N)[C@H]3O)[C@H](N)C[C@@H]2N)[C@H](N)C[C@@H]1O [Tobramycin],50.5 ± 70
12,OCCN1CCN(CCCN2c3ccccc3Sc3ccc(C(F)(F)F)cc32)CC1 [Fluphenazine dihydrochloride],45.6 ± 63
13,CC(=O)N1CCN(c2ccc(OCC3COC(Cn4ccnc4)(c4ccc(Cl)cc4Cl)O3)cc2)CC1 (stereo not given) [Ketoconazole],51.4 ± 65
14,CCc1nn(CCCN2CCN(c3cccc(Cl)c3)CC2)c(=O)n1CCOc1ccccc1 [Nefazodone hydrochloride],53 ± 66
15,O=C1NCN(c2ccccc2)C12CCN(CCCC(c1ccc(F)cc1)c1ccc(F)cc1)CC2 [Fluspirilen],97.6 ± 2.8
16,Clc1ccc(CCC(Cn2ccnc2)Sc2c(Cl)cccc2Cl)cc1 (stereo not given) [Butoconazole nitrate],53.7 ± 54
17,C#C[C@]1(O)CC[C@H]2[C@@H]3CCC4=Cc5oncc5C[C@]4(C)[C@H]3CC[C@@]21C [Danazol],47.5 ± 74
18,CO[C@H]1C[C@H](O[C@H]2[C@H](C)[C@@H](O[C@@H]3O[C@H](C)C[C@H](N(C)C)[C@H]3OC(C)=O)[C@@H](C)C[C@@]3(CO3)C(=O)[C@H](C)[C@@H](OC(C)=O)[C@@H](C)[C@@H](C)OC(=O)[C@@H]2C)O[C@@H](C)[C@@H]1OC(C)=O [Troleandomycin],58.8 ± 48
19,CN[C@H]1CC[C@@H](c2ccc(Cl)c(Cl)c2)c2ccccc21 [Sertraline],49.7 ± 70
20,CN(C)CCCN1c2ccccc2Sc2ccc(Cl)cc21 [Chlorpromazine hydrochloride],52.1 ± 68
